{"source": "paper PMC7819943", "about": "“Rice protein-binding microarrays: a tool to detect cis-acting elements near promoter regions in rice”", "note": "This is one part of the list.", "data": [{"target": "T1, OsSMF1 (Oryza sativa, UniProt Q6ZLB0 1-436)", "T1 sequence": "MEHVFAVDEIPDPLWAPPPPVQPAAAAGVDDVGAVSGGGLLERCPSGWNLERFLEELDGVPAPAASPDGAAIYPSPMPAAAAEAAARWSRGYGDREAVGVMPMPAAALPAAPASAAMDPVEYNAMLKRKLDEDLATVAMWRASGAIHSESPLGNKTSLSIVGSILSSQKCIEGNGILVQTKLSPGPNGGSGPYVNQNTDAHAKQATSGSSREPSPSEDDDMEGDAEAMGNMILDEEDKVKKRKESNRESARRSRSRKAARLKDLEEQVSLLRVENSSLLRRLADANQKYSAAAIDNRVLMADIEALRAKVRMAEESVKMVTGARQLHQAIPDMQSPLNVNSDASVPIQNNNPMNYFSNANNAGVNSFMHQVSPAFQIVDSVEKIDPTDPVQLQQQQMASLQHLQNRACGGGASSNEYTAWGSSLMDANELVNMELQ", "assay": "protein-binding microarray (RPBM); PBS, 2% BSA, 51.3 ng/ul salmon testes DNA, 50 uM zinc acetate, 200 nM TF, 25 C, 1 h; high values mean tight binding", "settings": "protein: recombinant; tags: N-terminal polyhistidine and DsRed monomer fusion (pET32a); chain copies: 2; label: CyDye5-dUTP incorporated in the synthesized complementary strand; 3' TTTTT single-stranded linker to array surface; dsDNA, one strand shown", "how_it_was_run": "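Per-feature fluorescence intensity (arbitrary units), read on an Axon 4000B scanner, is the binding signal. Transcription factors carrying an N-terminal polyhistidine tag and DsRed fusion were expressed in E. coli BL21-CodonPlus and purified on Ni–NTA. A custom Agilent array, made double-stranded by primer extension with Cy5-dUTP and blocked with 2% BSA, was incubated with 200 nM protein in PBS, 2% BSA, salmon testes DNA and 50 µM zinc acetate at 25 °C for 1 h and then washed.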", "values": [{"sequence": "TTTGGTTAGTGAATTTAGCTATCCTCTCCTTGACTTCCTACGGAGTCACCTAGTGCAG", "binding signal": "3660 fluorescence intensity (a.u.)"}, {"sequence": "TCAGGAATTGGACGGCCAGGATTTCTCCACACCATTGCCACGGAGTCACCTAGTGCAG", "binding signal": "3420 fluorescence intensity (a.u.)"}, {"sequence": "GAGCAAGCTCTCTCAAGCTCGGGCACTTTTGGCGAACGTGCGGAGTCACCTAGTGCAG", "binding signal": "3570 fluorescence intensity (a.u.)"}, {"sequence": "TGATCAAATCGCTCATAAAACATGTGCATCTTAGATTATACGGAGTCACCTAGTGCAG", "binding signal": "3160 fluorescence intensity (a.u.)"}, {"sequence": "CTTCTCTTCTTCCCCACATCCAGTTCGATTCTCATCTCTCCGGAGTCACCTAGTGCAG", "binding signal": "12600 fluorescence intensity (a.u.)"}, {"sequence": "ATTTATAAGCTCTCTACAAGATATCCATGTCAGCATATTTCGGAGTCACCTAGTGCAG", "binding signal": "10300 fluorescence intensity (a.u.)"}, {"sequence": "AATTGGTGCTATCAAAATTTGCTTATGTTTTGGCATTGTCCGGAGTCACCTAGTGCAG", "binding signal": "3480 fluorescence intensity (a.u.)"}, {"sequence": "TTGCCCTCGGAGACCGAGATGTCGTGGAGCCCCGCGACCGCGGAGTCACCTAGTGCAG", "binding signal": "3480 fluorescence intensity (a.u.)"}, {"sequence": "CCGCCAACCCGCCTCCACGCCTACGGAGACTGCCACGCGGCGGAGTCACCTAGTGCAG", "binding signal": "9410 fluorescence intensity (a.u.)"}, {"sequence": "GCTAGCGTCGCCGTCGTGCGTGGCGTGACCCGTCAGCTGGCGGAGTCACCTAGTGCAG", "binding signal": "9620 fluorescence intensity (a.u.)"}, {"sequence": "ATCGGACGATGAGAACAACACTGGTGAATCGCCAAGTACACGGAGTCACCTAGTGCAG", "binding signal": "22300 fluorescence intensity (a.u.)"}, {"sequence": "CCGTAAATTAAGCCACGTTCTAGAGGCGCATAACGTCAAGCGGAGTCACCTAGTGCAG", "binding signal": "3870 fluorescence intensity (a.u.)"}, {"sequence": "CGACTACTTGGGCGGGAGGGAAGCCGAGTAGATCCTTTTACGGAGTCACCTAGTGCAG", "binding signal": "4860 fluorescence intensity (a.u.)"}, {"sequence": "TATGTGACGCTCCACGCCGACACACATTTGCATTTGGCTCCGGAGTCACCTAGTGCAG", "binding signal": "3840 fluorescence intensity (a.u.)"}, {"sequence": "ATGCATATGCGAGGAATACAAGTATACAAGATGACAAGGACGGAGTCACCTAGTGCAG", "binding signal": "3210 fluorescence intensity (a.u.)"}, {"sequence": "ACCTATTATACACACATAACTTTTCAGCCACATCATCTTTCGGAGTCACCTAGTGCAG", "binding signal": "6860 fluorescence intensity (a.u.)"}, {"sequence": "AGCGATGAAGAGATCGGTCCCGATTTCTTGGCGGCGGTGGCGGAGTCACCTAGTGCAG", "binding signal": "36000 fluorescence intensity (a.u.)"}, {"sequence": "TACAGCGTCATTGCAAGAATGGTGACGGGGTTTGAGGTTGCGGAGTCACCTAGTGCAG", "binding signal": "6110 fluorescence intensity (a.u.)"}, {"sequence": "CGGTACTAGTTACGTAGCCCAGCAACATGGCGCCATCCGTCGGAGTCACCTAGTGCAG", "binding signal": "4410 fluorescence intensity (a.u.)"}, {"sequence": "TTAAATGCACCCCTACTCAACCCCTCAATCGACGTGTTGGCGGAGTCACCTAGTGCAG", "binding signal": "4180 fluorescence intensity (a.u.)"}, {"sequence": "AGGAGGAGGAGGAGGCGGTGGCGGTGTTGCTGTCCGGTGACGGAGTCACCTAGTGCAG", "binding signal": "3750 fluorescence intensity (a.u.)"}, {"sequence": "CACGTGTACAAGGGCAAAGCGCAACACCGACCCGAGTCCACGGAGTCACCTAGTGCAG", "binding signal": "39300 fluorescence intensity (a.u.)"}, {"sequence": "TGCAGCTGGTGCTGCTATTGATGTGCTGTTGTCGAGGCCGCGGAGTCACCTAGTGCAG", "binding signal": "3460 fluorescence intensity (a.u.)"}, {"sequence": "GCATAGTCCTTCCTCCAAGACTCCAAATGATCCCTCTCAACGGAGTCACCTAGTGCAG", "binding signal": "35600 fluorescence intensity (a.u.)"}, {"sequence": "GTGCTGTAATCTCCGCTCTTTGCTCGCTGACTTGCATTATCGGAGTCACCTAGTGCAG", "binding signal": "3800 fluorescence intensity (a.u.)"}, {"sequence": "CTCTGTACACGTGTAGAGAAAATTTATACTATGAATATTACGGAGTCACCTAGTGCAG", "binding signal": "6500 fluorescence intensity (a.u.)"}, {"sequence": "CCGCCACCGCGCTCACTGACGTCGTGGCCCCACCGCCTCTCGGAGTCACCTAGTGCAG", "binding signal": "5810 fluorescence intensity (a.u.)"}, {"sequence": "GTTCAAATTGGATCGTGACGAGGAAGCCTTTTGCCGTCGTCGGAGTCACCTAGTGCAG", "binding signal": "4010 fluorescence intensity (a.u.)"}, {"sequence": "CCCCTTTCTCTCTCCTCGCATCGCCACCTCACCTCACCTCCGGAGTCACCTAGTGCAG", "binding signal": "5990 fluorescence intensity (a.u.)"}, {"sequence": "CATACATGGAAAAGACAAATCGCCTGGTGCATGAGGCGCTCGGAGTCACCTAGTGCAG", "binding signal": "40600 fluorescence intensity (a.u.)"}, {"sequence": "TCTACTGATCCAATCGTGTCATCCAAGGGGTGGTAGCGATCGGAGTCACCTAGTGCAG", "binding signal": "4360 fluorescence intensity (a.u.)"}, {"sequence": "CCCGCTTCTTCCCCGCTGCTTGAATCAGTCGTATCCTCACCGGAGTCACCTAGTGCAG", "binding signal": "3470 fluorescence intensity (a.u.)"}, {"sequence": "TCAACTCCATCTGGTCATCAATCACTCTACCTTCATCTTCCGGAGTCACCTAGTGCAG", "binding signal": "3250 fluorescence intensity (a.u.)"}, {"sequence": "GTTACATTTGGCGTACCACACAACTCACTGTCAGCCCCGTCGGAGTCACCTAGTGCAG", "binding signal": "3440 fluorescence intensity (a.u.)"}, {"sequence": "GGCATTTGGACTTGGCTGCTTTGCAGCATGACAGGGCAAACGGAGTCACCTAGTGCAG", "binding signal": "7570 fluorescence intensity (a.u.)"}, {"sequence": "CATATTTGTTTTAGGTGTCTAGCTTGGCTTGGTACGTGCTCGGAGTCACCTAGTGCAG", "binding signal": "3200 fluorescence intensity (a.u.)"}, {"sequence": "CAGCTCCGCCCCGTCGCCGACGTGCTTCTCCATGTACCCGCGGAGTCACCTAGTGCAG", "binding signal": "3800 fluorescence intensity (a.u.)"}, {"sequence": "CCTAGTTCGGCTGGAGTTTCATCAAGGCTGACTGGACCACCGGAGTCACCTAGTGCAG", "binding signal": "4900 fluorescence intensity (a.u.)"}, {"sequence": "TGTTTTGTCTGAATTTCTGAATGCAGCTGAGGCAGAAATCCGGAGTCACCTAGTGCAG", "binding signal": "23800 fluorescence intensity (a.u.)"}, {"sequence": "AAGCCGACGCACCAGGCTCTGGCTCGTCCCGGATAAGATACGGAGTCACCTAGTGCAG", "binding signal": "3500 fluorescence intensity (a.u.)"}, {"sequence": "AACAGCAGAAAGCAGGGAGCGGAAAGCCCACCACCTTCCTCGGAGTCACCTAGTGCAG", "binding signal": "21300 fluorescence intensity (a.u.)"}, {"sequence": "TACTTTTGGTTATATATATCCTTCGTGGATGTAAAGATTGCGGAGTCACCTAGTGCAG", "binding signal": "3270 fluorescence intensity (a.u.)"}]}]}
